For one substance, binding results are on record in paper PMC8410846.

Test [1] concerns the target T1, 3-ketoacyl-CoA thiolase (3-KAT), Myc-tagged (UniProt P13437).
T1 sequence: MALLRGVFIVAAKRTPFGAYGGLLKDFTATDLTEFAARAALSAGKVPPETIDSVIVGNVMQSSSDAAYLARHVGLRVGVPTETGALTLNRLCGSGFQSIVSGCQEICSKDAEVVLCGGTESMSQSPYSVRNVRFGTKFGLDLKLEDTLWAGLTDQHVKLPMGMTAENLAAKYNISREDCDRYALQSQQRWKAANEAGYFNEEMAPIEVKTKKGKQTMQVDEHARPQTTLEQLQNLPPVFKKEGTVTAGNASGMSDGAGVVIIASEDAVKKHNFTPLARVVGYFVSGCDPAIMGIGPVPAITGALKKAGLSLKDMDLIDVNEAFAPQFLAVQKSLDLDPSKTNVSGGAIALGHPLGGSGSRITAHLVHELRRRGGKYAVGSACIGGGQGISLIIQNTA
The test is described as follows: co-IP; Myc-tagged ACADL, 3-KAT or ATP5A immunoprecipitated with anti-Myc-Tag antibody (5 µg, overnight, 4 °C) from cardiomyocytes in 20 mM Tris pH 7.5, 150 mM NaCl, 1 mM EDTA, 1% Triton X-100, protein A/G agarose; blots for Epac1 and CaMKII; cells stimulated or not with 8-CPT-AM (10 µM, 30 min), preincubated or not with CE3F4 (20 µM) or KN-93 (5 µM); IgG as control for IP.

For test [2], the target named is T2, long-chain fatty acid acyl-CoA dehydrogenase (ACADL), wild type, Myc-tagged (UniProt P15650).
T2 sequence: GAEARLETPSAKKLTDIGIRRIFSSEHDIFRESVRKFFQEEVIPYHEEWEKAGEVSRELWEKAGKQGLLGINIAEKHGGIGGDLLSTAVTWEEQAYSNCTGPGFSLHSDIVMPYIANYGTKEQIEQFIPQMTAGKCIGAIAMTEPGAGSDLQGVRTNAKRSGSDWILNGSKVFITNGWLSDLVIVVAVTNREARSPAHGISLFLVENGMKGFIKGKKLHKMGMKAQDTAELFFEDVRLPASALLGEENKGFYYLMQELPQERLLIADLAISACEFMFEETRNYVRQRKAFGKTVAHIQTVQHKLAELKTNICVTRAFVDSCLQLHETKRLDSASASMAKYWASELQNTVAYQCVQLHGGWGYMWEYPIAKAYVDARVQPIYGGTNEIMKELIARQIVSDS
The test is described as above.

These are yes or no findings as the source states them, for the method shown. In cells and extracts the contact can be indirect. Binding can be weak; no strength is given. Where a sequence is shown, tags or fusion partners need not be part of it.

Regarding “Ca2+/calmodulin-dependent protein kinase II (CaMKII) (enzyme)”, the binding entry in test [1] and in test [2] was “binds” throughout.
